Data on one substance can be found in doi:10.1101/2025.04.18.649622.

Sequences of proteins named here, by UniProt entry; tags and fusion partners are left off.
UniProt Q9H792: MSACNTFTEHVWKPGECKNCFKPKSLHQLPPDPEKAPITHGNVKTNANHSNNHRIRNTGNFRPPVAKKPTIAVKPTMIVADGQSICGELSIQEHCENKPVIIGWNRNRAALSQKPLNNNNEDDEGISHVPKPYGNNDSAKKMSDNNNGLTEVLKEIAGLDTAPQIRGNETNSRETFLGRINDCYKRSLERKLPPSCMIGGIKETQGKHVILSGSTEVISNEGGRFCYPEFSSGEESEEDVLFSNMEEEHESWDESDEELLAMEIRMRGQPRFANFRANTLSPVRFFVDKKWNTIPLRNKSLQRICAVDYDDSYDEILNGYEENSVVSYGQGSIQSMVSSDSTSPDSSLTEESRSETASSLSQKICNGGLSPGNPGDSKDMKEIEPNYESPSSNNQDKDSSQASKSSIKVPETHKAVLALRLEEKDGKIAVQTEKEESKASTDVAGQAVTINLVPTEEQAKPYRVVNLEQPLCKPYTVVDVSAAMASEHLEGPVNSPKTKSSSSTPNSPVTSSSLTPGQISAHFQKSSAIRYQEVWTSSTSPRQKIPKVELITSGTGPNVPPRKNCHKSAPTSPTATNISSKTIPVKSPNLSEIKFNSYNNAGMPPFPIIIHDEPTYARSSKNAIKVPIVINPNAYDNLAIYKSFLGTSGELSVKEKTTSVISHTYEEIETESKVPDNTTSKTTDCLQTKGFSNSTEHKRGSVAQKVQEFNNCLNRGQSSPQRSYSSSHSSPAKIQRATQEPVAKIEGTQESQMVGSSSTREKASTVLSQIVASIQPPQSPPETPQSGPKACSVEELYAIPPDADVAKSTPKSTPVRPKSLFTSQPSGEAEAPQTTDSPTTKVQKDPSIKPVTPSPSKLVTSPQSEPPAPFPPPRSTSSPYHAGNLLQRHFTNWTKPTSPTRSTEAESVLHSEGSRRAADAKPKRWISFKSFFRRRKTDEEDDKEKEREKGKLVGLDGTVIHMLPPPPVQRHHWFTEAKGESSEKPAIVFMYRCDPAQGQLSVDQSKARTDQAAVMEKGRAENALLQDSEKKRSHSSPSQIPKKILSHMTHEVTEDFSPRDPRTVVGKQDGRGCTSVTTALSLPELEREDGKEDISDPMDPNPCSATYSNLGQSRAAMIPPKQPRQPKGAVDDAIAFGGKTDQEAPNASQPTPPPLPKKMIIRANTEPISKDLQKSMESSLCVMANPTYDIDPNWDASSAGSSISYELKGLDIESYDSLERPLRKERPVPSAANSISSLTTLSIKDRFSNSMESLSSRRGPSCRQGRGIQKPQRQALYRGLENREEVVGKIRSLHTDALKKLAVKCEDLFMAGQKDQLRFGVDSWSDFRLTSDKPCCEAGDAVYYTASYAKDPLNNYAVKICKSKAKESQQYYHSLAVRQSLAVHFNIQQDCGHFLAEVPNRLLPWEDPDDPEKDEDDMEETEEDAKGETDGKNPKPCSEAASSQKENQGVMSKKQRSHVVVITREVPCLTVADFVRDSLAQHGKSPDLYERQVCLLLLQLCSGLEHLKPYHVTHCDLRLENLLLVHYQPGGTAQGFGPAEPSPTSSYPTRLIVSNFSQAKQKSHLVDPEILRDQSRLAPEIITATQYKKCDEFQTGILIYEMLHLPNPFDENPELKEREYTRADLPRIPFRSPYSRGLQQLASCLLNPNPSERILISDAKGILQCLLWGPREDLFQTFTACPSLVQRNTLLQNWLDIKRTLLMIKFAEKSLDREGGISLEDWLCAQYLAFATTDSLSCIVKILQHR

For this test, the target named is T1, FLAG-RHOV in RHOV-overexpressing cells (UniProt Q96L33).
T1 sequence: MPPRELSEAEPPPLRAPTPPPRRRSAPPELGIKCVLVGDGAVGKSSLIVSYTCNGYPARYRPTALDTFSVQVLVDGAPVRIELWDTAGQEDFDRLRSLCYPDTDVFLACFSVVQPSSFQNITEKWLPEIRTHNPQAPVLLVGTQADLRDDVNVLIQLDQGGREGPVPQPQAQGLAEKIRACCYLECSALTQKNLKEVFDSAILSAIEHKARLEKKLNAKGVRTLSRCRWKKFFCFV
As to the kind of experiment: co-IP.

No constants are given. Whether binding was seen depends on the method and setting. In cells and extracts the contact can be indirect. Some binding calls cover weakened binding; strength is not graded here. Sequences can lack the tags named with a protein.

For “Pseudopodium Enriched Atypical Kinase 1 (PEAK1) (from UniProt Q9H792 1-1746)”, the binding entry is listed as “binds”.
